Data from patent US10175256B2, “Compositions and methods utilizing lysophosphatidylcholine scaffolds” (National University Of Singapore, priority 2013, dated 2019).

Experiment: Lipidomic analysis of brain, liver and heart phospholipids of WT and Mfsd2a KO mice (Table 2)
Type: in vivo
Settings: MS, normalized to internal standard; for Amount of lipid species, brain-KO1 / Amount of lipid species, liver-KO1: Mfsd2a KO mouse 1; for Amount of lipid species, brain-KO2 / Amount of lipid species, liver-KO2: Mfsd2a KO mouse 2; for Amount of lipid species, brain-KO3 / Amount of lipid species, liver-KO3: Mfsd2a KO mouse 3; for Amount of lipid species, brain-KO4 / Amount of lipid species, liver-KO4: Mfsd2a KO mouse 4; for Amount of lipid species, brain-WT1 / Amount of lipid species, liver-WT1: wild-type mouse 1; for Amount of lipid species, brain-WT2 / Amount of lipid species, liver-WT2: wild-type mouse 2; for Amount of lipid species, brain-WT3 / Amount of lipid species, liver-WT3: wild-type mouse 3; for Amount of lipid species, brain-WT4 / Amount of lipid species, liver-WT4: wild-type mouse 4; for Amount of lipid species, brain-WT5 / Amount of lipid species, liver-WT5: wild-type mouse 5

Compound | Amount of lipid species, brain-KO1 | Amount of lipid species, brain-KO2 | Amount of lipid species, brain-KO3 | Amount of lipid species, brain-KO4 | Amount of lipid species, brain-WT1 | Amount of lipid species, brain-WT2 | Amount of lipid species, brain-WT3 | Amount of lipid species, brain-WT4 | Amount of lipid species, brain-WT5 | Amount of lipid species, liver-KO1 | Amount of lipid species, liver-KO2 | Amount of lipid species, liver-KO3 | Amount of lipid species, liver-KO4 | Amount of lipid species, liver-WT1 | Amount of lipid species, liver-WT2 | Amount of lipid species, liver-WT3 | Amount of lipid species, liver-WT4 | Amount of lipid species, liver-WT5
CCCCCCCCCCCCCCCCCC(=O)OC[C@@H](O)COP(=O)(O)OCCN [LysoPE18:0] | 0.3933 mol percent in total phospholipid analysed | 0.4911 mol percent in total phospholipid analysed | 0.5088 mol percent in total phospholipid analysed | 0.3963 mol percent in total phospholipid analysed | 0.3859 mol percent in total phospholipid analysed | 0.4891 mol percent in total phospholipid analysed | 0.3177 mol percent in total phospholipid analysed | 0.3174 mol percent in total phospholipid analysed | 0.4124 mol percent in total phospholipid analysed |  |  |  |  |  |  |  |  | 
CCCCCCCCCCCCCCCC/C=C\OC[C@@H](O)COP(=O)(O)OCCN [LysoPE18:0p] | 0.6022 mol percent in total phospholipid analysed | 0.7223 mol percent in total phospholipid analysed | 0.71 mol percent in total phospholipid analysed | 0.6559 mol percent in total phospholipid analysed | 0.8958 mol percent in total phospholipid analysed | 0.7214 mol percent in total phospholipid analysed | 0.898 mol percent in total phospholipid analysed | 0.9654 mol percent in total phospholipid analysed | 1.141 mol percent in total phospholipid analysed |  |  |  |  |  |  |  |  | 
CCCCCCCCCCCCCCCC(=O)OC[C@@H](O)COP(=O)(O)OC1[C@H](O)[C@H](O)C(O)[C@H](O)[C@H]1O (stereo partly drawn) [LPI16:0] | 0.002979 mol percent in total phospholipid analysed | 0.00251 mol percent in total phospholipid analysed | 0.002802 mol percent in total phospholipid analysed | 0.003238 mol percent in total phospholipid analysed | 0.002486 mol percent in total phospholipid analysed | 0.003248 mol percent in total phospholipid analysed | 0.002848 mol percent in total phospholipid analysed | 0.003136 mol percent in total phospholipid analysed | 0.003236 mol percent in total phospholipid analysed |  |  |  |  |  |  |  |  | 
CCCCCCCCCCCCCCCCCC/C=C\OC[C@@H](O)COP(=O)(O)OCCN [Lyso PE20:0p] | 0.03687 mol percent in total phospholipid analysed | 0.04334 mol percent in total phospholipid analysed | 0.071 mol percent in total phospholipid analysed | 0.08199 mol percent in total phospholipid analysed | 0.04135 mol percent in total phospholipid analysed | 0.04891 mol percent in total phospholipid analysed | 0.04144 mol percent in total phospholipid analysed | 0.0529 mol percent in total phospholipid analysed | 0.05499 mol percent in total phospholipid analysed |  |  |  |  |  |  |  |  | 
CCCCCCCCCCCCCCCCCC(=O)OC[C@@H](O)COP(=O)([O-])OCC[N+](C)(C)C [LysoPC18:0] | 0.04573 mol percent in total phospholipid analysed | 0.04052 mol percent in total phospholipid analysed | 0.05017 mol percent in total phospholipid analysed | 0.0366 mol percent in total phospholipid analysed | 0.03098 mol percent in total phospholipid analysed | 0.03106 mol percent in total phospholipid analysed | 0.02968 mol percent in total phospholipid analysed | 0.03034 mol percent in total phospholipid analysed | 0.02994 mol percent in total phospholipid analysed | 0.2396 mol percent in total phospholipid analysed | 0.2338 mol percent in total phospholipid analysed | 0.2765 mol percent in total phospholipid analysed | 0.2041 mol percent in total phospholipid analysed | 0.1837 mol percent in total phospholipid analysed | 0.1637 mol percent in total phospholipid analysed | 0.1421 mol percent in total phospholipid analysed | 0.164 mol percent in total phospholipid analysed | 0.1584 mol percent in total phospholipid analysed
PE38:5 | 1.106 mol percent in total phospholipid analysed | 1.079 mol percent in total phospholipid analysed | 1.152 mol percent in total phospholipid analysed | 0.9839 mol percent in total phospholipid analysed | 0.8085 mol percent in total phospholipid analysed | 0.8641 mol percent in total phospholipid analysed | 0.9578 mol percent in total phospholipid analysed | 1.076 mol percent in total phospholipid analysed | 0.999 mol percent in total phospholipid analysed |  |  |  |  |  |  |  |  | 
CCCCCCCCCCCCCC/C=C\OC[C@@H](O)COP(=O)(O)OCCN [Lyso PE16:0p] | 2.286 mol percent in total phospholipid analysed | 2.412 mol percent in total phospholipid analysed | 2.319 mol percent in total phospholipid analysed | 2.815 mol percent in total phospholipid analysed | 2.66 mol percent in total phospholipid analysed | 2.568 mol percent in total phospholipid analysed | 2.777 mol percent in total phospholipid analysed | 2.275 mol percent in total phospholipid analysed | 2.048 mol percent in total phospholipid analysed |  |  |  |  |  |  |  |  | 
CCCCCCCCCCCCCCCCCCOC[C@@H](O)COP(=O)([O-])OCC[N+](C)(C)C [LysoPC18:0e] | 0.001689 mol percent in total phospholipid analysed | 0.001518 mol percent in total phospholipid analysed | 0.001554 mol percent in total phospholipid analysed | 0.00147 mol percent in total phospholipid analysed | 0.001262 mol percent in total phospholipid analysed | 0.001318 mol percent in total phospholipid analysed | 0.001259 mol percent in total phospholipid analysed | 0.001151 mol percent in total phospholipid analysed | 0.001118 mol percent in total phospholipid analysed | 0.006998 mol percent in total phospholipid analysed | 0.005765 mol percent in total phospholipid analysed | 0.007272 mol percent in total phospholipid analysed | 0.005924 mol percent in total phospholipid analysed | 0.005996 mol percent in total phospholipid analysed | 0.005175 mol percent in total phospholipid analysed | 0.004757 mol percent in total phospholipid analysed | 0.005185 mol percent in total phospholipid analysed | 0.006143 mol percent in total phospholipid analysed
CCCCCCCCCCCCCCCC(=O)OC[C@@H](O)COP(=O)([O-])OCC[N+](C)(C)C [LysoPC16:0] | 0.07419 mol percent in total phospholipid analysed | 0.06621 mol percent in total phospholipid analysed | 0.07611 mol percent in total phospholipid analysed | 0.06264 mol percent in total phospholipid analysed | 0.06588 mol percent in total phospholipid analysed | 0.05812 mol percent in total phospholipid analysed | 0.05493 mol percent in total phospholipid analysed | 0.05681 mol percent in total phospholipid analysed | 0.05329 mol percent in total phospholipid analysed | 0.1654 mol percent in total phospholipid analysed | 0.1701 mol percent in total phospholipid analysed | 0.1803 mol percent in total phospholipid analysed | 0.1794 mol percent in total phospholipid analysed | 0.1964 mol percent in total phospholipid analysed | 0.1702 mol percent in total phospholipid analysed | 0.13 mol percent in total phospholipid analysed | 0.1488 mol percent in total phospholipid analysed | 0.1663 mol percent in total phospholipid analysed
